In PMC7819943, “Rice protein-binding microarrays: a tool to detect cis-acting elements near promoter regions in rice”:
This is one part of the list.

By UniProt entry, the sequences of proteins in these tests, tags left out.
UniProt Q0JBA9, entry or part of it: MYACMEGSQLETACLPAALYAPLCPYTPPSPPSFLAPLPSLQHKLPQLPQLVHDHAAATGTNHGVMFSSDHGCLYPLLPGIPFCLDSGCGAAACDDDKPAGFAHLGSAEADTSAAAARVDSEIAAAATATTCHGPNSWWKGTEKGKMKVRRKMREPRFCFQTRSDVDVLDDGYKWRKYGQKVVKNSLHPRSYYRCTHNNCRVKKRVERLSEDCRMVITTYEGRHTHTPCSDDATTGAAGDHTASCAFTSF

target: OsWRKY34 (Oryza sativa, UniProt Q0JBA9 1-250); test: protein-binding microarray (RPBM); PBS, 2% BSA, 51.3 ng/ul salmon testes DNA, 50 uM zinc acetate, 200 nM TF, 25 C, 1 h; high values mean tight binding; details: protein: recombinant; tags: N-terminal polyhistidine and DsRed monomer fusion (pET32a); label: CyDye5-dUTP incorporated in the synthesized complementary strand; 3' TTTTT single-stranded linker to array surface; dsDNA, one strand shown
How it was run: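 Per-feature fluorescence intensity (arbitrary units), read on an Axon 4000B scanner, is the binding signal. Transcription factors carrying an N-terminal polyhistidine tag and DsRed fusion were expressed in E. coli BL21-CodonPlus and purified on Ni–NTA. A custom Agilent array, made double-stranded by primer extension with Cy5-dUTP and blocked with 2% BSA, was incubated with 200 nM protein in PBS, 2% BSA, salmon testes DNA and 50 µM zinc acetate at 25 °C for 1 h and then washed.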

Sequence | binding signal
AGATTCTGGCTTTTATTTTTGATGCTCTACTCAATTCGATCGGAGTCACCTAGTGCAG | 9380 fluorescence intensity (a.u.)
TCCTGTATCTGTACGAGTTTTATTTAGTTTCTTTTTTTAACGGAGTCACCTAGTGCAG | 9230 fluorescence intensity (a.u.)
CTCTCTGCTTCACTTCTCTGCTTGTGTTGTTCTGTTGTTCCGGAGTCACCTAGTGCAG | 13500 fluorescence intensity (a.u.)
AATACTCTTTTCATCCGGTCCGCGAGTGATATTATCACTCCGGAGTCACCTAGTGCAG | 9000 fluorescence intensity (a.u.)
TTTATTCAATCCTCACATTCTCAGTTTATTTTATTTTATTCGGAGTCACCTAGTGCAG | 8920 fluorescence intensity (a.u.)
AACGGTCAAATATGTGCTAAAAAGTCAACGGTGTCAAATACGGAGTCACCTAGTGCAG | 11300 fluorescence intensity (a.u.)
CTTGCAGTTTCGGCCCGATGCACCGCCACGCGTATTTCCGCGGAGTCACCTAGTGCAG | 11100 fluorescence intensity (a.u.)
GATGTTTCAGAGGTTTATTCACTTATACTGTTATAGTACACGGAGTCACCTAGTGCAG | 9760 fluorescence intensity (a.u.)
TTATTTCATTCCTTTGCAGCAGTATCCATGTTGAGGTTATCGGAGTCACCTAGTGCAG | 14000 fluorescence intensity (a.u.)
TTGGCATCAATCTATACAACTATCTCTACATGCTGCAGAACGGAGTCACCTAGTGCAG | 8530 fluorescence intensity (a.u.)
TGCCACACGTCGCCGGTCATTACGAACACGCACCTTTAACCGGAGTCACCTAGTGCAG | 8160 fluorescence intensity (a.u.)
ATTCTCGCTTTGGCCCTCGTGCCCTGCGCTTATATGCATACGGAGTCACCTAGTGCAG | 8260 fluorescence intensity (a.u.)
CTTCAACTACCTTTCACCCTCTTTTGGTATGCTTGATTGTCGGAGTCACCTAGTGCAG | 9070 fluorescence intensity (a.u.)
AATACTCACAATTATTGTTCTTCTACAACATGTTTCACAACGGAGTCACCTAGTGCAG | 8180 fluorescence intensity (a.u.)
TGTTCTGGGAGTTGATGTACTTCCTCAGGTCGGGGTTCTTCGGAGTCACCTAGTGCAG | 11200 fluorescence intensity (a.u.)
ATGCTCTCTCTCGCTCTCGACGGCAATCTCCTCCGGCAAACGGAGTCACCTAGTGCAG | 10500 fluorescence intensity (a.u.)
ATTATTGTGTGTGTGGGGAACTGGCCCTACGAGTTTTATTCGGAGTCACCTAGTGCAG | 10700 fluorescence intensity (a.u.)
CGCACTGGCGGGGCTTGGAGCTGGGGTTTCTAGGGTTTGGCGGAGTCACCTAGTGCAG | 8980 fluorescence intensity (a.u.)
AAACATCCAACGTGATACCCAAAAGTTTTCTTTGCGCAACCGGAGTCACCTAGTGCAG | 8240 fluorescence intensity (a.u.)
CACCAGTCCACTTCCCTGCACATGCACCAAACCACCAATTCGGAGTCACCTAGTGCAG | 8190 fluorescence intensity (a.u.)
CATAACCAACCTCGACAGCCTCCTATCGCGTTTCCTATAACGGAGTCACCTAGTGCAG | 8760 fluorescence intensity (a.u.)

Pulled one by one from above (2):
Sequence | binding signal
CTTGCAGTTTCGGCCCGATGCACCGCCACGCGTATTTCCGCGGAGTCACCTAGTGCAG | 11100 fluorescence intensity (a.u.)
TTATTTCATTCCTTTGCAGCAGTATCCATGTTGAGGTTATCGGAGTCACCTAGTGCAG | 14000 fluorescence intensity (a.u.)

(list continues)

Sequence | binding signal
GAGGTGGAGGTGCGGAAAAGCCGCGGCGTTGTTGTCTTGCCGGAGTCACCTAGTGCAG | 9420 fluorescence intensity (a.u.)
ATTCTTGCCGTCCAACCGCCTGCCTTGATTAATCCGTCGTCGGAGTCACCTAGTGCAG | 9040 fluorescence intensity (a.u.)
CTAATTGAACGGTCAATTCTTACCCATTCATGGTTCGATTCGGAGTCACCTAGTGCAG | 8350 fluorescence intensity (a.u.)
TCCATCGTTCCCTTTGTAACCTGTATTTTCCACCATATAACGGAGTCACCTAGTGCAG | 14500 fluorescence intensity (a.u.)
GTGCTGATCCATTTGCCGCATGCTGGTGAGCTAACGTGACCGGAGTCACCTAGTGCAG | 9820 fluorescence intensity (a.u.)
ATTCGAATTTCTCTCTCTCTCTCTCTAGTCTCTATAAACACGGAGTCACCTAGTGCAG | 8510 fluorescence intensity (a.u.)
GGCGGGTGGCTGCTCGCCGGACATGGTGGGTGGGTGCGTGCGGAGTCACCTAGTGCAG | 9310 fluorescence intensity (a.u.)
TATTGCACCTTTTCTCTATTGTTTTGAATTCAGTGAAGATCGGAGTCACCTAGTGCAG | 11600 fluorescence intensity (a.u.)
CGCCTCCGTCTCTTCGCCCTATAAAACCAACGCGCTTCTCCGGAGTCACCTAGTGCAG | 9420 fluorescence intensity (a.u.)
CTCTGCAATCCCCACGCCGCCGCCTCCTCATTCCTTCCCGCGGAGTCACCTAGTGCAG | 8840 fluorescence intensity (a.u.)
GCTTAGATTAAATCCTTTTTGTAACTGTACATTTTATATACGGAGTCACCTAGTGCAG | 10400 fluorescence intensity (a.u.)
AATCGCGTATCTGTGCACGTCCGTCTGGCCGAACGACTTCCGGAGTCACCTAGTGCAG | 8330 fluorescence intensity (a.u.)
TACCAGTAGATGTTTACTCCCTGTTTACAAGTCAATCATACGGAGTCACCTAGTGCAG | 8210 fluorescence intensity (a.u.)
GGTGGTTAGAGCCAGGGGAGGGAGGGCGGTAGCGGTCGTTCGGAGTCACCTAGTGCAG | 14300 fluorescence intensity (a.u.)
GGAAAACTCTCTCGTAACCTTTGTGTTTTTTTTTCTATCTCGGAGTCACCTAGTGCAG | 8330 fluorescence intensity (a.u.)
GATCACCATCCGCTCATCATACCATCGCCATTTTGCCCGTCGGAGTCACCTAGTGCAG | 9210 fluorescence intensity (a.u.)
TCATGGCGCATTTAGGCTTAAAAGATTTGTCTCGCAATTTCGGAGTCACCTAGTGCAG | 9310 fluorescence intensity (a.u.)
ACTGGTGACAAGTACATCACCTTGATTTCTTCTTTTTTTTCGGAGTCACCTAGTGCAG | 9690 fluorescence intensity (a.u.)
ATAGCCCTATCATTTCGATTGTTTTTACGCATATAAACTACGGAGTCACCTAGTGCAG | 8100 fluorescence intensity (a.u.)
CTTCCGCTTCCGCCTACCTCACCTCACCTTAGCTCACACGCGGAGTCACCTAGTGCAG | 13200 fluorescence intensity (a.u.)
CCTGATCGGATTTGGTTGGCTGGTGCTCTAGATGATGTACCGGAGTCACCTAGTGCAG | 8170 fluorescence intensity (a.u.)

Given as labelled records: entries from further up
AATACTCACAATTATTGTTCTTCTACAACATGTTTCACAACGGAGTCACCTAGTGCAG
  binding signal: 8180 fluorescence intensity (a.u.)
TCCATCGTTCCCTTTGTAACCTGTATTTTCCACCATATAACGGAGTCACCTAGTGCAG
  binding signal: 14500 fluorescence intensity (a.u.)
